# Results from publication PMC9663509.
# Amino acid sequences for entries named in this document (tags omitted).
# UniProt P41240: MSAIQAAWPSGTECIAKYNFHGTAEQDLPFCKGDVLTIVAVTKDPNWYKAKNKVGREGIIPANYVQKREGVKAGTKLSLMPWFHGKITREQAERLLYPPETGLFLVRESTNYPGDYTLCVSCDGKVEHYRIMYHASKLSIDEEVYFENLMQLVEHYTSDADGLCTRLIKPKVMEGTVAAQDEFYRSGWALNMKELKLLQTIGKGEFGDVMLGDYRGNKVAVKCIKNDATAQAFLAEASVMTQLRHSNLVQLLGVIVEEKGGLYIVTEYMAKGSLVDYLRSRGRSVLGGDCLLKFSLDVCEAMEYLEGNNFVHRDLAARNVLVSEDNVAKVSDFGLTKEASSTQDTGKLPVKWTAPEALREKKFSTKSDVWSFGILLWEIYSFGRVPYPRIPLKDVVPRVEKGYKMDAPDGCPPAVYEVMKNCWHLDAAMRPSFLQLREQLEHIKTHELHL
# No constants are given. Whether binding was seen depends on the method and setting. Binding seen in cells or lysates may run through a third protein. Tags and fused reporters may be left off the sequences shown.
# B1: kinase-dead mutant (K158R) of ACK1, HA-tagged (enzyme, UniProt Q07912 1-1038)
# chain: MQPEEGTGWLLELLSEVQLQQYFLRLRDDLNVTRLSHFEYVKNEDLEKIGMGRPGQRRLWEAVKRRKALCKRKSWMSKVFSGKRLEAEFPPHHSQSTFRKTSPAPGGPAGEGPLQSLTCLIGEKDLRLLEKLGDGSFGVVRRGEWDAPSGKTVSVAVRCLKPDVLSQPEAMDDFIREVNAMHSLDHRNLIRLYGVVLTPPMKMVTELAPLGSLLDRLRKHQGHFLLGTLSRYAVQVAEGMGYLESKRFIHRDLAARNLLLATRDLVKIGDFGLMRALPQNDDHYVMQEHRKVPFAWCAPESLKTRTFSHASDTWMFGVTLWEMFTYGQEPWIGLNGSQILHKIDKEGERLPRPEDCPQDIYNVMVQCWAHKPEDRPTFVALRDFLLEAQPTDMRALQDFEEPDKLHIQMNDVITVIEGRAENYWWRGQNTRTLCVGPFPRNVVTSVAGLSAQDISQPLQNSFIHTGHGDSDPRHCWGFPDRIDELYLGNPMDPPDLLSVELSTSRPPQHLGGVKKPTYDPVSEDQDPLSSDFKRLGLRKPGLPRGLWLAKPSARVPGTKASRGSGAEVTLIDFGEEPVVPALRPCAPSLAQLAMDACSLLDETPPQSPTRALPRPLHPTPVVDWDARPLPPPPAYDDVAQDEDDFEICSINSTLVGAGVPAGPSQGQTNYAFVPEQARPPPPLEDNLFLPPQGGGKPPSSAQTAEIFQALQQECMRQLQAPAGSPAPSPSPGGDDKPQVPPRVPIPPRPTRPHVQLSPAPPGEEETSQWPGPASPPRVPPREPLSPQGSRTPSPLVPPGSSPLPPRLSSSPGKTMPTTQSFASDPKYATPQVIQAPGPRAGPCILPIVRDGKKVSSTHYYLLPERPSYLERYQRFLREAQSPEEPTPLPVPLLLPPPSTPAPAAPTATVRPMPQAALDPKANFSTNNSNPGARPPPPRATARLPQRGCPGDGPEAGRPADKIQMAMVHGVTTEECQAALQCHGWSVQRAAQYLKVEQLFGLGLRPRGECHKVLEMFDWNLEQAGCHLLGSWGPAHHKR
# Biological target: C-terminal Src kinase (CSK), FLAG-tagged (UniProt P41240)
# Experiment: co-IP; HEK293T co-transfected with FLAG-CSK and HA-ACK1 or HA-kd-ACK1; lysates immunoprecipitated with CSK antibody, immunoblotted with ACK1 antibodies
binder,measurement,value
B1,binding,no binding
